{"source": "paper PMC2603309", "key": {"[1]": {"biological_target": "T1, FLAG-TRAF6 C85A/H87A (full-length RING finger mutant) (murine) (UniProt P70196)", "T1 sequence": "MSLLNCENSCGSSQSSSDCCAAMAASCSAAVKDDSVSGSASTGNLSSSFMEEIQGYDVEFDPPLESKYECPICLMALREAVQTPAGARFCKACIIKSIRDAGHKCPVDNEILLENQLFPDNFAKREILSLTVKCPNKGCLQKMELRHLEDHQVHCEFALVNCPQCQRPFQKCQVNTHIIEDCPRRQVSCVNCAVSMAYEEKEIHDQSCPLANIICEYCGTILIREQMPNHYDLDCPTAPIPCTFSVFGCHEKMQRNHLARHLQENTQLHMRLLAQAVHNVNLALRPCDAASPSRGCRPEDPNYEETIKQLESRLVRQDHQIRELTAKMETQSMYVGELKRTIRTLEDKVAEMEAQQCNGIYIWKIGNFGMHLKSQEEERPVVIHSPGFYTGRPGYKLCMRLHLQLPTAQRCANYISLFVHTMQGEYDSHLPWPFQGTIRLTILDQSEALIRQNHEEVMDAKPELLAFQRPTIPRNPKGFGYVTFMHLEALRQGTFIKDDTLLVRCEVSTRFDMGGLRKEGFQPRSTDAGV", "assay": "co-IP; 293T cells co-transfected with equal amounts (1 µg) of FLAG-TRAF6 construct and Myc-tagged partner; lysis buffer 20 mM HEPES pH 7.5, 150 mM NaCl, 10% glycerol, 0.5% NP-40; IP with anti-FLAG agarose, 3 hours at 4°C, washed 3x; immunoblot with anti-Myc"}, "[2]": {"biological_target": "T2, FLAG-TRAF6 (wild-type, full-length murine TRAF6) (murine) (UniProt P70196)", "T2 sequence": "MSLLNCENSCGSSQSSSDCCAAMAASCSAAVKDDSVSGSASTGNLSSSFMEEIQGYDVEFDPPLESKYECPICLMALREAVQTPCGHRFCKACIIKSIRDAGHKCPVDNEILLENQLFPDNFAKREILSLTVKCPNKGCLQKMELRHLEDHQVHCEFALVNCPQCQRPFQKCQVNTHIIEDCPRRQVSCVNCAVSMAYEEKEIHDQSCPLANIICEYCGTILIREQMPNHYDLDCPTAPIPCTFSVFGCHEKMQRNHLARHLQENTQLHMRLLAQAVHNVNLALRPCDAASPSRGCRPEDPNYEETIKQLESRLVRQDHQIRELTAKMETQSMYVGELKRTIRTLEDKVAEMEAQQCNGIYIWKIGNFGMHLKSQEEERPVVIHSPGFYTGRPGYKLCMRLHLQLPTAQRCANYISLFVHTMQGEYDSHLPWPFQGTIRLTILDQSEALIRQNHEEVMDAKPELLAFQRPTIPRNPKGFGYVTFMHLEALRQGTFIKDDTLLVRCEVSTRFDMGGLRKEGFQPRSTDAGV", "assay": "co-IP; 293T cells co-transfected with equal amounts (1 µg) of FLAG-TRAF6 construct and Myc-tagged partner; lysis buffer 20 mM HEPES pH 7.5, 150 mM NaCl, 10% glycerol, 0.5% NP-40; IP with anti-FLAG agarose, 3 hours at 4°C, washed 3x; immunoblot with anti-Myc"}}, "note": "These are yes or no findings as the source states them, for the method shown. In cells and extracts the contact can be indirect. Some entries that bind do so weakly or less than the wild type. Sequences can lack the tags named with a protein."}
{"binder": "Myc-tagged TAK1 (enzyme, UniProt Q62073 1-579) MSTASAASSSSSSSASEMIEAPSQVLNFEEIDYKEIEVEEVVGRGAFGVVCKAKWRAKDVAIKQIESESERKAFIVELRQLSRVNHPNIVKLYGACLNPVCLVMEYAEGGSLYNVLHGAEPLPYYTAAHAMSWCLQCSQGVAYLHSMQPKALIHRDLKPPNLLLVAGGTVLKICDFGTACDIQTHMTNNKGSAAWMAPEVFEGSNYSEKCDVFSWGIILWEVITRRKPFDEIGGPAFRIMWAVHNGTRPPLIKNLPKPIESLMTRCWSKDPSQRPSMEEIVKIMTHLMRYFPGADEPLQYPCQYSDEGQSNSATSTGSFMDIASTNTSNKSDTNMEQVPATNDTIKRLESKLLKNQAKQQSESGRLSLGASRGSSVESLPPTSEGKRMSADMSEIEARIVATAGNGQPRRRSIQDLTVTGTEPGQVSSRSSSPSVRMITTSGPTSEKPARSHPWTPDDSTDTNGSDNSIPMAYLTLDHQLQPLAPCPNSKESMAVFEQHCKMAQEYMKVQTEIALLLQRKQELVAELDQDEKDQQNTSRLVQEHKKLLDENKSLSTYYQQCKKQLEVIRSQQQKRQGTS", "values": [{"measurement": "binding", "setting": "[1]", "result": "binds"}, {"measurement": "binding", "setting": "[2]", "result": "binds"}]}
